Measured values: US12322837B2, “Electrochemical reduction of halogenated compounds comprising a haloalkane” (Massachusetts Institute of Technology, priority 2021, dated 2025)

Experiments:
[1] = Galvanostatic discharge of Swagelok-type Li cells with 0.1 M fluoro-aromatic reactant in LiClO4/DMSO; conditions: for discharge potential: 0.1 M reactant in DMSO electrolyte; for discharge voltage, single plateau: 0.1 M R-Ph-SF5/0.1 M LiClO4/DMSO, Ketjen Black
[2] = Rechargeability of Li-NO2-Ph-SF5 cells (galvanostatic cycling); conditions: for reversible capacity (up to): EC/DMC
[3] = Shelf-life tests for Li-NO2-Ph-SF5 cells
[4] = Galvanostatic discharge of Li-NO2-Ph-SF5 cells at high catholyte concentration
[5] = Na—NO2-Ph-SF5 cell discharge and cycling; conditions: for discharge voltage: 4 M
[6] = Ca-NO2-Ph-SF5 cell discharge; conditions: 0.04 mA/cm^2, 50° C.

SMILES: N#Cc1ccccc1C=CC(F)(F)C(F)(F)C(F)(F)C(F)(F)C(F)(F)C(F)(F)F [Ph-CN-C6 (o)]
- discharge potential ([1]; 50° C.): 2.5 V

SMILES: FC(F)(F)C(F)(F)C(F)(F)C(F)(F)C(F)(F)C(F)(F)C=Cc1ccccc1 [Ph-H-C6]
- discharge potential ([1]; 50° C.): 2.1 V

SMILES: FS(F)(F)(F)(F)c1ccccc1 [Ph-SF5]
- discharge voltage, single plateau ([1]; 40 μA·cm^−2, 50° C.): −2.5 V vs. Li/Li^+

SMILES: O=[N+]([O-])c1ccc(S(F)(F)(F)(F)F)cc1 [NO2-Ph-SF5, 4-Nitrophenylsulfur pentafluoride]
- capacity in second discharge ([2]; 0.1 M, DMSO, 1.9-3.9 V vs. Li/Li^+, 0.04 mA/cm^2, 50° C.): 0.26 mAh/cm^2
- capacity in second discharge ([2]; 0.1 M, DMSO, 50° C.): 2.2 e^−/molecule
- capacity in third discharge ([2]; 0.1 M, DMSO, 50° C.): −1.3 e/molecule
- reversible capacity (up to) ([2]; 0.1 M, 1.5-4.6 V vs. Li/Li^+, 50° C.): up to 0.47 mAh/cm^2
- reversible capacity (up to) ([2]; 0.1 M, 50° C.): ≤ 3.9 e/molecule
- partially reversible capacity, lower voltage region ([2]; second and third discharge): 2-3 e/molecule
- capacity loss upon discharge after rest ([3]; as-assembled cells rested 30 days at 50° C., 4 M): no capacity loss
- voltage fade upon interruption at partial depth-of-discharge ([3]; resting for 10-30 days): negligible voltage fade
- attainable capacity ([4]; 1.0 M, 40 μA/cm^2, 50° C.): 818 mAh·g—NO2-Ph-SF5^−1
- attainable capacity ([4]; 2.0 M, 40 μA/cm^2, 50° C.): 786 mAh·g—NO2-Ph-SF5^−1
- sub-stack capacity ([4]; 3 M, 0.1 mA·cm^−2): 292 mAh·gsub-stack^−1
- sub-stack capacity ([4]; 4 M, 0.1 mA·cm^−2): 362 mAh·gsub-stack^−1
- sub-stack capacity (rate capability) ([4]; 4.0 M, 50° C., 0.3-1.0 mA·cm^−2 (0.01 C-0.04 C)): ~362 mAh·gsub-stack^−1
- sub-stack gravimetric energy at low power ([4]; 4 M, at ˜15 W·kgsub-stack^−1): ~1000 Wh·kgsub-stack^−1
- maximum gravimetric energy ([4]; 4.5 M, 0.1 mA·cm^−2): 1085 Wh·kgsub-stack^−1
- attained capacity ([4]; 5.0 M, 40 μA/cm^2, 50° C.): 544 mAh·gNO2-Ph-SF5^−1
- areal capacity ([4]; increasing between 1.0 and 5.0 M, 40 μA/cm^2, 50° C.): 5.8-19.1 mAh-cm^−2
- capacity of second discharge ([5]; 0.1 M, EC/DMC, 0.02 mA/cm^2, RT): 380 mAh/gNO2-Ph-SF5
- capacity of initial discharge ([5]; 0.1 M, EC/DMC, 0.3 mA/cm^2, RT): 441 mAh/gNO2-Ph-SF5
- capacity of third discharge ([5]; 0.1 M, EC/DMC, RT): > 200 mAh/g/gPh-NO2-SF5
- reversible capacity ([5]; 0.1 M, EC/DMC, RT): ~200 mAh/gPh-NO2-SF5
- total capacity of the two discharges ([5]; 0.1 M, EC/DMC, RT): 821 mAh/gPh-NO2-SF5
- discharge capacity ([5]; 4 M NO2-Ph-SF5/0.2 M NaTFSI in DMSO, carbon foam, 0.3 mA/cm^2, 50° C.): 2.3 mAh/cm^2
- discharge voltage ([5]; DMSO, 0.3 mA/cm^2, 50° C.): −2.2 V vs. Na/Na^+
- discharge voltage ([5]; EC/PC, 0.3 mA/cm^2, 50° C.): 2.0 V vs. Na/Na^+
- total capacity ([6]; 4 M NO2-Ph-SF5/0.2 M CaTFSI/DMSO): 6.5 mAh/cm^2
- initial discharge voltage ([6]; 4 M): 0.8 V vs. Ca/Ca^2+
- average voltage ([1]; 0.1 M, 50° C.): 2.6 V
- gravimetric attainable capacity ([1]; 0.1 M, 50° C.): 840 mAh/greactant
- specific energy (normalized to weight of active materials, Li+liquid reactant) ([1]; 0.1 M, 50° C.): 2190 Wh/kgreactant
- capacity of first region ([1]; 40 μA/cm^2, 50° C.): ~5 e^− per molecule
- capacity of second region ([1]; 40 μA/cm^2, 50° C.): ~3 e^− per molecule
- share of first region in total capacity ([1]; 40 μA/cm^2, 50° C.): > 60%
- total electron transfer (calculated based on capacity) ([1]; 40 μA/cm^2, 50° C.): 8 e^−
- voltage of first flat plateau ([1]; 40 μA/cm^2, 50° C.): 2.9 V
- gas evolution during discharge (pressure transducer) ([1]; 150 μL 0.1 M NO2-Ph-SF5/0.1 M LiClO4/DMSO, KB, 40 μA·cm^−2, 50° C.): negligible gas evolution

SMILES: FS(F)(F)(F)(F)c1ccc(I)cc1 [Ph-I—SF5]
- discharge voltage, single plateau ([1]; 40 μA·cm^−2, 50° C.): −2.5 V vs. Li/Li^+

SMILES: O=[N+]([O-])c1ccccc1C=CC(F)(F)C(F)(F)C(F)(F)C(F)(F)C(F)(F)C(F)(F)F [Ph-NO2—C6 (o)]
- discharge potential ([1]; 50° C.): 2.6 V
- gravimetric attainable capacity ([1]; 0.1 M, 50° C.): 642 mAh/greactant
- specific energy (normalized to weight of active materials, Li+liquid reactant) ([1]; 0.1 M, 50° C.): 1600 Wh/kgreactant

SMILES: O=[N+]([O-])c1ccccc1C=CC(F)(F)C(F)(F)C(F)(F)C(F)(F)C(F)(F)C(F)(F)C(F)(F)C(F)(F)F [Ph-NO2—C8 (o)]
- gravimetric attainable capacity ([1]; 0.1 M, 50° C.): 681 mAh/greactant
- specific energy (normalized to weight of active materials, Li+liquid reactant) ([1]; 0.1 M, 50° C.): 1700 Wh/kgreactant

SMILES: N#Cc1ccc(C=CC(F)(F)C(F)(F)C(F)(F)C(F)(F)C(F)(F)C(F)(F)C(F)(F)C(F)(F)F)cc1 [Ph-CN-C8 (p)]
- gravimetric attainable capacity ([1]; 0.1 M, 50° C.): 748 mAh/greactant
- specific energy (normalized to weight of active materials, Li+liquid reactant) ([1]; 0.1 M, 50° C.): 1785 Wh/kgreactant

SMILES: FC(F)(F)C(F)(F)C(F)(F)C(F)(F)C(F)(F)C(F)(F)C=Cc1cccnc1 [Py-C6]
- increase of discharge potential on changing benzene to pyridine (from Ph-H-C6) ([1]; 0.1 M, 50° C.): −0.1 V
